The text below walks through data of paper doi:10.1101/2023.08.11.552966 (bioRxiv, 2023).

The chains behind the UniProt entries cited, without tags or fusion partners.
UniProt Q06609: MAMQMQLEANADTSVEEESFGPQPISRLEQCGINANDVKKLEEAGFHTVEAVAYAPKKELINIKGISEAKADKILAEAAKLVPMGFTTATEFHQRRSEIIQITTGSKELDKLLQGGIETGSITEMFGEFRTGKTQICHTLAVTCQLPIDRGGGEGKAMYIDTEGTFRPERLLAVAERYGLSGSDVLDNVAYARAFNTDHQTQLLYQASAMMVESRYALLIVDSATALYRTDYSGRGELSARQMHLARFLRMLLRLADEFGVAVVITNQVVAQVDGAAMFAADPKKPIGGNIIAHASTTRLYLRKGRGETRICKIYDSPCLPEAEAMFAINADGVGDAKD

These are yes or no findings as the source states them, for the method shown. Binding seen in cells or lysates may run through a third protein. Some results given as binding are weak or reduced against the parent protein; the word gives no strength.

For this experiment, the target named is RAD51 (endogenous, HeLa nuclear extracts) (human (endogenous in HeLa)) (UniProt Q06609). The experiment in a line: co-IP.

B1: Sc35 (Nuclear Speckles component, endogenous, HeLa nuclear extracts) (protein, UniProt Q01130 1-221)
chain: MSYGRPPPDVEGMTSLKVDNLTYRTSPDTLRRVFEKYGRVGDVYIPRDRYTKESRGFAFVRFHDKRDAEDAMDAMDGAVLDGRELRVQMARYGRPPDSHHSRRGPPPRRYGGGGYGRRSRSPRRRRRSRSRSRSRSRSRSRSRYSRSKSRSRTRSRSRSTSKSRSARRSKSKSSSVSRSRSRSRSRSRSRSPPPVSKRESKSRSRSKSPPKSPEEEGAVSS
As to B1, the binding result is recorded as “binds”.
